These results are taken from the odorant receptor screen of Mainland et al. (2015).

Some test systems named below: OR10R2 clone 1400; OR10T2 clone 1032; OR10W1 R263Q clone 1176; OR10X1 clone 1368; OR10X1 clone 1516; OR10Z1 clone 1026; OR11A1 clone 1062; OR11H1 clone 1558; OR11H12 clone 1302.
Assay in all cases: odorant receptor activation (CRE luciferase / Renilla) (fold of no-odor wells); higher = more activation
Holding throughout (settings): 100 µM

Test [1] deals with OR10V1 Q101L/V117A/Q123W clone 1520.

Values joined by “and” are separate entries in the source; they are usually repeats but may differ in a detail not shown here. Equal entries are not always repeated. The list shows a part of the results. Single wells; the ratio to wells without odorant was worked out here, and repeats agree poorly.

For the molecule `CCOc1cc(C=O)ccc1O` [ethyl vanillin], the odorant receptor activation with OR10R2 clone 1400 was 0.891 and 1.23; in the test with OR10T2 clone 1032, 0.779 and 1.16; in test [1] it was 1.03 and 2.08 and 1.3; in the test on OR10W1 R263Q clone 1176, 1.54 and 1.2; with OR10X1 clone 1368, 1.2; with OR10X1 clone 1516, 1.24 and 2.84 and 1.62. The odorant receptor activation was 0.816 and 1.21 in the test with OR10Z1 clone 1026; 1.11 and 0.961 in the test on OR11A1 clone 1062; 0.736 in the test with OR11H1 clone 1558; 1.61 and 1.21 with OR11H12 clone 1302.

For the molecule `CCC(C)=O` [2-butanone], the odorant receptor activation in the test with OR10R2 clone 1400 worked out at 0.613; in the test with OR10T2 clone 1032 it was 3.27; in test [1] it was 1.22; in the test on OR10W1 R263Q clone 1176, 1.02; in the test with OR10X1 clone 1368, 0.83; with OR10X1 clone 1516, 1.21. The odorant receptor activation came out at 3.9 in the test with OR10Z1 clone 1026, 2.54 with OR11A1 clone 1062, 1.15 in the test with OR11H1 clone 1558 and 1.13 in the test with OR11H12 clone 1302.

On to `CS` [methanethiol], for which the odorant receptor activation in the test with OR10R2 clone 1400 came out at 1.08; in the test on OR10T2 clone 1032, 0.988; in [1] it was 0.977; in the test with OR10W1 R263Q clone 1176, 0.875; in the test with OR10X1 clone 1368 it was 0.96; in the test on OR10X1 clone 1516 it was 0.858. In addition, the odorant receptor activation in the test on OR10Z1 clone 1026 was found to be 0.963; in the test on OR11A1 clone 1062, 0.98; in the test with OR11H1 clone 1558, 0.765; with OR11H12 clone 1302 it was 1.04.

For the molecule `CCCCOC(C)=O` [butyl acetate], the odorant receptor activation turned out to be 0.132 in the test on OR10R2 clone 1400; 0.944 in the test on OR10T2 clone 1032; 0.703 in test [1]; 0.927 with OR10W1 R263Q clone 1176; 0.206 in the test on OR10X1 clone 1368; 1.18 in the test with OR10X1 clone 1516. Also, the odorant receptor activation in the test with OR10Z1 clone 1026 was 1.25; in the test on OR11A1 clone 1062, 1.02; in the test with OR11H1 clone 1558, 0.768; in the test on OR11H12 clone 1302 it was 0.711.
